Experimental data as given in paper PMC3463608.
These are yes or no findings as the source states them, for the method shown. Some binding calls cover weakened binding; strength is not graded here. Where a sequence is shown, tags or fusion partners need not be part of it.

Target: T1, His-tagged Chs5p (S. cerevisiae) (UniProt Q12114)
T1 sequence: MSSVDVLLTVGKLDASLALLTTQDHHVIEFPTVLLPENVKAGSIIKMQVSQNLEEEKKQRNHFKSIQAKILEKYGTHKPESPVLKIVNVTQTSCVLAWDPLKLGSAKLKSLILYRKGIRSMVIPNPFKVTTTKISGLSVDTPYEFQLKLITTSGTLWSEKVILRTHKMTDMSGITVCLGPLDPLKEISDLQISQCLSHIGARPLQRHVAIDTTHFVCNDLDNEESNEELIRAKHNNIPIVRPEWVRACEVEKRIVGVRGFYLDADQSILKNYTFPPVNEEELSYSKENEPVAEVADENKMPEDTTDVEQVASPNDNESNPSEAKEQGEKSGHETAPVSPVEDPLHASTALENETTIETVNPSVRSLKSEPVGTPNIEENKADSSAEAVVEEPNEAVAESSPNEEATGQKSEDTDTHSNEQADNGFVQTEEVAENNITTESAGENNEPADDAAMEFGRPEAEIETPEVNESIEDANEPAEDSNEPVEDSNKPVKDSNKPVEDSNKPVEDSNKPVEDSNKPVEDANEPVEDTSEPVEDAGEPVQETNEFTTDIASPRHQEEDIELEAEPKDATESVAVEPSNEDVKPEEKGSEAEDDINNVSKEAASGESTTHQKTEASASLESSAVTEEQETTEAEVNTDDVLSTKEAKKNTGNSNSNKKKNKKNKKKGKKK
Assay: pull-down; His-Chs5p alone immobilized on Ni-NTA beads, incubated with 150 ug/ml purified GST-Chs3 fragments at RT for 30 min; SDS-PAGE and Coomassie staining; data not shown; both purified

binding: binds
B1: GST-Chs3 (1–170), full N-terminal cytosolic tail of Chs3p (domain or fragment, UniProt P29465 1-170)
chain: MTGLNGDDPDDYYLNLNQDEESLLRSRHSVGSGAPHRQGSLVRPERSRLNNPDNPHFYYAQKTQEQMNHLDVLPSSTGVNPNATRRSGSLRSKGSVRSKFSGRETDSYLLQDMNTTDKKASVKISDEGVAEDEFDKDGDVDNFEESSTQPINKSIKPLRKETNDTLSFWQ
